The supplement of paper PMC10849652
This is one part of the list.

Protein sequences, listed by entry. Tags and fused reporters are not part of them. Lines headed by an entry give the natural chain unless they say otherwise; changes in a name come on top.
UniProt P06858: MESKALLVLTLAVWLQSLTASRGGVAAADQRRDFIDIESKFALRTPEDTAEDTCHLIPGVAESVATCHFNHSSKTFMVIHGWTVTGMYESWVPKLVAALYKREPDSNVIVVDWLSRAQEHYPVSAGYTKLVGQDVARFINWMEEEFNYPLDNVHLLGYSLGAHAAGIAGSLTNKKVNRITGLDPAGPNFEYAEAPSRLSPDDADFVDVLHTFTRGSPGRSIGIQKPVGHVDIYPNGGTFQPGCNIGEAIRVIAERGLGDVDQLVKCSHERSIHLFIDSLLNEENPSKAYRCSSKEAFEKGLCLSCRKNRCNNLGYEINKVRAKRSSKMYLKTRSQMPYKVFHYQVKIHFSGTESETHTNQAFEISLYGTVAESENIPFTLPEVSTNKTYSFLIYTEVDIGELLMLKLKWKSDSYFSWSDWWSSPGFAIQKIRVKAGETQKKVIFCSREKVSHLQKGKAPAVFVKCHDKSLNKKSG
UniProt P02545: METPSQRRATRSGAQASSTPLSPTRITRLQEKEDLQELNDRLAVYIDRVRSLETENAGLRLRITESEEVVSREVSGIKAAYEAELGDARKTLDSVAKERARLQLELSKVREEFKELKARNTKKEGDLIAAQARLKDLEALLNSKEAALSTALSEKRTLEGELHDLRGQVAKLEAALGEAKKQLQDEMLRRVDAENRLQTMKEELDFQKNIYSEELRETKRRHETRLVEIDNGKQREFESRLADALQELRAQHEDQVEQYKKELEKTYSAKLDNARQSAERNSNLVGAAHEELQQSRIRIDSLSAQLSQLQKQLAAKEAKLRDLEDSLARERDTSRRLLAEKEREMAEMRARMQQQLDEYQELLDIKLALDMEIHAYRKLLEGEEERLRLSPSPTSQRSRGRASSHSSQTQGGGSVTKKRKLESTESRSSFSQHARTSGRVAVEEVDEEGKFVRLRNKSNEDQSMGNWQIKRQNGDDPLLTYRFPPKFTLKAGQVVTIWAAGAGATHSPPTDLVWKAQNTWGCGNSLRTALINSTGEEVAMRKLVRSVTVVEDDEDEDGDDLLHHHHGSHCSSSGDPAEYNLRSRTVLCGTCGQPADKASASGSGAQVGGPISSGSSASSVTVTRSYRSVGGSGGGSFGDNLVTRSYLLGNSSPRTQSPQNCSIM
UniProt Q9P2J5: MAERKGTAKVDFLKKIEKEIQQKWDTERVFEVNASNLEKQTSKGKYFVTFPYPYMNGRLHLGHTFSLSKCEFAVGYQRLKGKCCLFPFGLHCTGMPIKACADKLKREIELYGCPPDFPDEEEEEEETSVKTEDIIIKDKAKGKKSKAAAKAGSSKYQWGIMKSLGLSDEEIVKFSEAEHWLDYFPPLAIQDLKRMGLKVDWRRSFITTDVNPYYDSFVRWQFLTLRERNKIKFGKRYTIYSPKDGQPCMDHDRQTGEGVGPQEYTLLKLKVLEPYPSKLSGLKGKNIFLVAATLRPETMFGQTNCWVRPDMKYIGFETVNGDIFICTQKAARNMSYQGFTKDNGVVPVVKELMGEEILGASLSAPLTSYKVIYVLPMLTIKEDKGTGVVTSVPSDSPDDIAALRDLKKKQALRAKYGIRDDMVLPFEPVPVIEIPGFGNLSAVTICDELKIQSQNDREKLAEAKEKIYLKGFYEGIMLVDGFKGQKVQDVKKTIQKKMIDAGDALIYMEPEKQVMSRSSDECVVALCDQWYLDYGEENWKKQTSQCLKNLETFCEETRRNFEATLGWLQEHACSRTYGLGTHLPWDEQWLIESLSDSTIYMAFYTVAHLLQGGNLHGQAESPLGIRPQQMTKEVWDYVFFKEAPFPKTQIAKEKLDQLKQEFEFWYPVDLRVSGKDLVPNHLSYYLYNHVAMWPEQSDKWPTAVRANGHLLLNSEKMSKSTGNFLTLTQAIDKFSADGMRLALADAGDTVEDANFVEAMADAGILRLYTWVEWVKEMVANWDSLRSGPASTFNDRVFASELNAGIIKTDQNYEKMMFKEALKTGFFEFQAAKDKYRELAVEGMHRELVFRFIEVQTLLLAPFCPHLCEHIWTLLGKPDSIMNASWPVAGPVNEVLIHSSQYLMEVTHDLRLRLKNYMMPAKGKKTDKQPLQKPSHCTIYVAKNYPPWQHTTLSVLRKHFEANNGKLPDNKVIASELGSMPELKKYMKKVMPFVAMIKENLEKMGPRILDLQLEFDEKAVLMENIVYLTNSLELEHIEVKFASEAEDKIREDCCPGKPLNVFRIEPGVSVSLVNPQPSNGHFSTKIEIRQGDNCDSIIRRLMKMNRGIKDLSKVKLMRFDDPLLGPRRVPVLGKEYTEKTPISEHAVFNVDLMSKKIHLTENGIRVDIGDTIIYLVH
UniProt Q92539: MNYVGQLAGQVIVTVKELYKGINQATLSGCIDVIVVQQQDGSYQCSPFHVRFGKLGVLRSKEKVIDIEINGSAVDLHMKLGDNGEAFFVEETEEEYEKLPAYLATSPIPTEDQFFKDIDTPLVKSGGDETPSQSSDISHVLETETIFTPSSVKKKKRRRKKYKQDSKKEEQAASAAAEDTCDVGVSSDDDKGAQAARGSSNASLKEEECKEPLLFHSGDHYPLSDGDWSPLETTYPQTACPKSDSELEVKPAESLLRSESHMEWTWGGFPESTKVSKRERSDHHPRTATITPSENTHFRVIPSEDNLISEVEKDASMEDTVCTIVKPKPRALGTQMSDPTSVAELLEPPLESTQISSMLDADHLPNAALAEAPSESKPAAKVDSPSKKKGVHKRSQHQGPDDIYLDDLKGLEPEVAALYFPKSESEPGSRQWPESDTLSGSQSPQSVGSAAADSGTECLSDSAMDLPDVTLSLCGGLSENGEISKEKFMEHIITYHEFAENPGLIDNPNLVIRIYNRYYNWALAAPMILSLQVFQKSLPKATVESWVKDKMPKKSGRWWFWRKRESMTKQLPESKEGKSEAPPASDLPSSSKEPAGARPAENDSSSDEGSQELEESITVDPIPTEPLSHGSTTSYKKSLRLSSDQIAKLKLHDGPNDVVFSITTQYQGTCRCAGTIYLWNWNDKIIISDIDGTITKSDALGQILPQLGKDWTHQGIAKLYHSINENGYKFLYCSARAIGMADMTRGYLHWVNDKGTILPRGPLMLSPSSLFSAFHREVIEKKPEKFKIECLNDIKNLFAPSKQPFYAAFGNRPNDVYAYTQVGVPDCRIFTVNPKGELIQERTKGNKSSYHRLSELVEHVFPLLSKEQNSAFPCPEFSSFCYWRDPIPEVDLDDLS
UniProt Q6PJG9: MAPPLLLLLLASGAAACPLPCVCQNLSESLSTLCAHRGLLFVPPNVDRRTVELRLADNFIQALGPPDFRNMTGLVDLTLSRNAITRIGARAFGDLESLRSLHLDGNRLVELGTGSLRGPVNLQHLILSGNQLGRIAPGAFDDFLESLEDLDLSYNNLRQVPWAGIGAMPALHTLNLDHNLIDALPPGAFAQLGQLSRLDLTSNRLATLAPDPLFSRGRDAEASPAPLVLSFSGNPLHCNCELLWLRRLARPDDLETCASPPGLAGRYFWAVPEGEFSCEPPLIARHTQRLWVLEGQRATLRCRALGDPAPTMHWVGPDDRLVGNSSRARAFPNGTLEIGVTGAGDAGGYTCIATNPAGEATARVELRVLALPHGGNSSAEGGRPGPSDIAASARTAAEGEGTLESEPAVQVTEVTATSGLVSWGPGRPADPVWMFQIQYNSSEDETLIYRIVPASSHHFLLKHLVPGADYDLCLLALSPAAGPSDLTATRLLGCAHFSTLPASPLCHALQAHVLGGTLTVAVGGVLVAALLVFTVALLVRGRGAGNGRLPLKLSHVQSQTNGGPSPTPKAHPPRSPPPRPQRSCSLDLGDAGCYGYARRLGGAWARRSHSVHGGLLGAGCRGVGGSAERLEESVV
UniProt O15243: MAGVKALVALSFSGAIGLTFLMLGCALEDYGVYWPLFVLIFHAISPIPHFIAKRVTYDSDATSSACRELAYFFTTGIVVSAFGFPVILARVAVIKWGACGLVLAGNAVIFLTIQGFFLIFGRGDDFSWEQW
UniProt Q6ZUX7: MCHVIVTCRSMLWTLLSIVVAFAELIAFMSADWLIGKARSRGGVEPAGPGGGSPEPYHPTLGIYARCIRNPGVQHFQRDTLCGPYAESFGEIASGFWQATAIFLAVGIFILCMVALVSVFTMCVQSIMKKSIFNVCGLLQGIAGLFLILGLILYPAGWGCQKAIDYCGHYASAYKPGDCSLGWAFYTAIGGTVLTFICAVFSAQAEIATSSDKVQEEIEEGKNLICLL
UniProt Q53QV2: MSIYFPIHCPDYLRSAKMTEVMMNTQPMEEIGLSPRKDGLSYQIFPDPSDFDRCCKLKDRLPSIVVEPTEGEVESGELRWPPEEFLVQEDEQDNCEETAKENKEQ
UniProt Q52LA3: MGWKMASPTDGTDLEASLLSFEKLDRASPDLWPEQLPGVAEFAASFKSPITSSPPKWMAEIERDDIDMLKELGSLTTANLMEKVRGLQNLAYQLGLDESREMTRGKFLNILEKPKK
UniProt Q86VI4: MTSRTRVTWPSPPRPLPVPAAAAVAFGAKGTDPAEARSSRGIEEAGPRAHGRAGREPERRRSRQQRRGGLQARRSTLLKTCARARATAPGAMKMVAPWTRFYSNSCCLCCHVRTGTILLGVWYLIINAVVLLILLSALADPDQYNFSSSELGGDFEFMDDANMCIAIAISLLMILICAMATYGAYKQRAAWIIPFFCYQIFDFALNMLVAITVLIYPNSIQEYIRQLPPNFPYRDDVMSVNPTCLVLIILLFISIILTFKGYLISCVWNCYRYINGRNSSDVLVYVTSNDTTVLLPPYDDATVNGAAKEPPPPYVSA
UniProt Q15345: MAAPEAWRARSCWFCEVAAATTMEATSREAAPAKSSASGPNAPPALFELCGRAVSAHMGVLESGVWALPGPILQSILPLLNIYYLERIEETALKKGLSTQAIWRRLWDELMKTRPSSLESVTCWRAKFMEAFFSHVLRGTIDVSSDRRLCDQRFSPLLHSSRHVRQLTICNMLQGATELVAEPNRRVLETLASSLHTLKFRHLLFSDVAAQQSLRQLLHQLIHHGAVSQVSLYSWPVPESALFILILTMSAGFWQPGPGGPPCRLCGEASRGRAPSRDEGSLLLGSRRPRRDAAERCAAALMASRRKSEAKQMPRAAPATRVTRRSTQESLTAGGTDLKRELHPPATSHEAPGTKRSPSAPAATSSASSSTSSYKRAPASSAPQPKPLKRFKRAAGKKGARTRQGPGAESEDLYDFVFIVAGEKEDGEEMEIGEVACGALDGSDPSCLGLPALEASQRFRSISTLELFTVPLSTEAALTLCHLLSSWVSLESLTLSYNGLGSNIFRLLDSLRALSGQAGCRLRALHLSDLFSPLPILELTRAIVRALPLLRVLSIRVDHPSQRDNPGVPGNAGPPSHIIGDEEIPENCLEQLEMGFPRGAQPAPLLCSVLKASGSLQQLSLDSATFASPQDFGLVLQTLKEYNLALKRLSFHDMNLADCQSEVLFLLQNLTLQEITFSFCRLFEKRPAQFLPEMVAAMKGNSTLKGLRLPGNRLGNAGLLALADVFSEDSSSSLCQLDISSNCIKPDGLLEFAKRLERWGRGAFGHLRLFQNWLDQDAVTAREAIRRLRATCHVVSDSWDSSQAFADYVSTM
UniProt P48059, whole entry, looked up: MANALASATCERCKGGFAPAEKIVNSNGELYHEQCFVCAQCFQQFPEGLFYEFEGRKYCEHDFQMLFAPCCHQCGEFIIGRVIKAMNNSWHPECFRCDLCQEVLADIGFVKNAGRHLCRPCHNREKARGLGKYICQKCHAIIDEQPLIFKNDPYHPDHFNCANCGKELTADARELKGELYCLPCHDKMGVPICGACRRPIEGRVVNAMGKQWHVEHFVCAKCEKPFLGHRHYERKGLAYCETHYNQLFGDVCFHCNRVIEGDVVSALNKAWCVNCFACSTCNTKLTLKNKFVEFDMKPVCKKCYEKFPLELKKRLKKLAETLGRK
UniProt Q9GZZ8: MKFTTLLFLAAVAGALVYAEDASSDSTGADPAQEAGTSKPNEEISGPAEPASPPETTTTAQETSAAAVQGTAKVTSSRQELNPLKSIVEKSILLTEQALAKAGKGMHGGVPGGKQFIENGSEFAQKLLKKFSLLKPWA
UniProt Q9BQE6: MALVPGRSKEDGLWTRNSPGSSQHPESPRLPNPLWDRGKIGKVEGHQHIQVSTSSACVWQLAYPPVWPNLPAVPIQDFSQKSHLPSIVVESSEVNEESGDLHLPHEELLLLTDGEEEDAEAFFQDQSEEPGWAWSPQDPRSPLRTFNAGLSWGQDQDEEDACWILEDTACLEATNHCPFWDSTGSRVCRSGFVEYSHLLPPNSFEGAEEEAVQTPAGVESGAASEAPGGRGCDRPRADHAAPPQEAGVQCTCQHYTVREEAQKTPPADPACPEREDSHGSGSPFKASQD
UniProt Q13571: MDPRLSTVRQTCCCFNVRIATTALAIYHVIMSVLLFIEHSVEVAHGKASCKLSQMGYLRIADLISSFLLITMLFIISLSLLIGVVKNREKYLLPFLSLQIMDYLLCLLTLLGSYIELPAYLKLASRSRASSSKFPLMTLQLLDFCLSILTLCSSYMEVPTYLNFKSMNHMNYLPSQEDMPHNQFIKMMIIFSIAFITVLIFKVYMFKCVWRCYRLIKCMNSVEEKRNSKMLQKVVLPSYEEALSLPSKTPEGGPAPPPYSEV

Columns and labels:
Assay in all cases: log2 fold change, soluble protein after heating vs DMSO (PISA); higher = thermal stabilisation; K562 cells, 10 uM, 30 min; active = over 0.2 and 3.5 SD of the protein, either way, in both replicates (recomputed)
[1] = compound: COC1=CC=C(C=C1)CN2C=CC3=C2C=C(C=C3)C(=O)NO
How it was run: (§1)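 Aliquots of K562 cells (2×10^6 cells/mL) treated with 10 μM compound for 30 min were heated for 3 min over 48°C-58°C. After pooling and extraction in PBS with 0.5% NP-40 at 4°C, soluble protein from a 21,000xg, 90 min spin was quantified by TMTpro 16plex LC-MS/MS with channel sums equalised. Thermal stability is expressed against control samples, from duplicates, as a log2 fold change.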

filanesib = compound: CON(C)C(=O)N1N=C(c2cc(F)ccc2F)S[C@@]1(CCCN)c1ccccc1 [filanesib]
How it was run: as §1

zotarolimus = compound: CO[C@H]1C[C@@H]2CC[C@@H](C)[C@@](O)(O2)C(=O)C(=O)N2CCCC[C@H]2C(=O)O[C@H]([C@H](C)C[C@@H]2CC[C@H](n3cnnn3)[C@H](OC)C2)CC(=O)[C@H](C)/C=C(\C)[C@@H](O)[C@@H](OC)C(=O)[C@H](C)C[C@H](C)/C=C/C=C/C=C/1C [zotarolimus]
How it was run: as §1

idasanutlin = compound: COc1cc(C(=O)O)ccc1NC(=O)[C@@H]1N[C@@H](CC(C)(C)C)[C@](C#N)(c2ccc(Cl)cc2F)[C@H]1c1cccc(Cl)c1F [idasanutlin]
How it was run: as §1

alisertib = compound: COc1cc(Nc2ncc3c(n2)-c2ccc(Cl)cc2C(c2c(F)cccc2OC)=NC3)ccc1C(=O)O [alisertib]
How it was run: as §1

[2] = compound: COc1cc2nc(-c3cc(F)ccc3O)nc(N[C@@H]3CNC[C@H]3C(C)(C)O)c2cc1OC
How it was run: as §1

[3] = compound: COc1cccc2cc(-c3nc([C@H]4CC[C@H](C(=O)O)CC4)n4ncnc(N)c34)[nH]c12
How it was run: as §1

lapatinib = compound: CS(=O)(=O)CCNCc1ccc(-c2ccc3ncnc(Nc4ccc(OCc5cccc(F)c5)c(Cl)c4)c3c2)o1 [lapatinib]
How it was run: as §1

pictilisib = compound: CS(=O)(=O)N1CCN(Cc2cc3nc(-c4cccc5[nH]ncc45)nc(N4CCOCC4)c3s2)CC1 [pictilisib]
How it was run: as §1

gefitinib = compound: COc1cc2ncnc(Nc3ccc(F)c(Cl)c3)c2cc1OCCCN1CCOCC1 [gefitinib]
How it was run: as §1

Measured: log2 fold change

LMBR1 isoform 3 (UniProt Q8WVP7)
inactive: [1] -0.165 | filanesib -0.267 | zotarolimus -0.033 | idasanutlin 0.156 | alisertib 0.016 | [2] -0.218 | [3] 0.029 | lapatinib -0.043 | pictilisib 0.043

LPL (UniProt P06858)
inactive: [1] -0.08 | filanesib 0.114 | zotarolimus 0.152 | idasanutlin 0.028 | alisertib -0.042 | [2] 0.037 | [3] 0.109 | lapatinib 0.082 | pictilisib 0.013

LMNA (UniProt P02545)
inactive: [1] -0.093 | filanesib 0.088 | zotarolimus 0.018 | idasanutlin 0.093 | alisertib 0.096 | [2] -0.112 | gefitinib -0.014 | [3] 0 | lapatinib 0.028 | pictilisib 0.008

LAMTOR4 (UniProt Q0VGL1)
inactive: [1] 0.032 | filanesib -0.066 | zotarolimus -0.028 | idasanutlin 0.06 | alisertib -0.068 | [2] -0.143 | gefitinib -0.011 | [3] -0.212 | lapatinib 0.032 | pictilisib -0.2

LACTB (UniProt P83111)
inactive: [1] -0.095 | filanesib -0.02 | zotarolimus -0.021 | idasanutlin 0.066 | alisertib -0.107 | [2] -0.109 | gefitinib -0.031 | [3] -0.001 | lapatinib 0.085 | pictilisib 0.067

LEO1 (UniProt Q8WVC0)
inactive: [1] -0.038 | filanesib 0.021 | zotarolimus 0.175 | idasanutlin 0.023 | alisertib -0.08 | [2] -0.035 | gefitinib 0.009 | [3] -0.034 | lapatinib -0.032 | pictilisib 0.009

LMNB2 (UniProt Q03252)
inactive: [1] -0.023 | filanesib 0.1 | zotarolimus -0.064 | idasanutlin 0.099 | alisertib 0.004 | [2] -0.005 | gefitinib -0.001 | [3] 0.069 | lapatinib 0.059 | pictilisib 0.03

LAP3 (UniProt P28838)
inactive: [1] 0.021 | filanesib -0.042 | zotarolimus 0 | idasanutlin -0.05 | alisertib -0.031 | [2] -0.019 | gefitinib 0.007 | [3] 0.074 | lapatinib 0.023 | pictilisib 0.014

LRRC20 (UniProt Q8TCA0)
inactive: [1] 0.022 | filanesib -0.046 | zotarolimus -0.017 | idasanutlin -0.071 | alisertib -0.083 | [2] 0.069 | gefitinib 0.092 | [3] 0.055 | lapatinib -0.011 | pictilisib -0.175

LPCAT3 (UniProt Q6P1A2)
inactive: [1] -0.067 | zotarolimus -0.065 | idasanutlin -0.086 | alisertib -0.055 | [2] -0.117 | gefitinib -0.024 | [3] -0.017 | lapatinib 0.172 | pictilisib -0.011
active: filanesib -0.352

LARS (UniProt Q9P2J5)
inactive: [1] -0.017 | filanesib 0.262 | zotarolimus 0.067 | idasanutlin 0.18 | alisertib -0.109 | [2] -0.002 | gefitinib -0.007 | [3] -0.213 | lapatinib 0.035 | pictilisib -0.1

LPIN2 (UniProt Q92539)
inactive: [1] 0.039 | filanesib -0.021 | zotarolimus 0.033 | idasanutlin -0.004 | alisertib -0.019 | [2] 0.026 | gefitinib -0.068 | [3] 0.064 | lapatinib -0.055 | pictilisib 0.133

LRFN4 (UniProt Q6PJG9)
inactive: [1] -0.137 | filanesib -0.07 | zotarolimus 0.004 | idasanutlin 0.101 | alisertib -0.03 | [2] -0.173 | [3] 0.218 | lapatinib -0.063 | pictilisib 0.083

LEPROT (UniProt O15243)
inactive: zotarolimus -0.056 | idasanutlin 0.31 | alisertib -0.027 | [3] 0.041 | pictilisib -0.212

LHFPL2 (UniProt Q6ZUX7)
inactive: [2] 0.052 | lapatinib -0.071

LATS1 (UniProt O95835)
inactive: pictilisib -0.072

LBH (UniProt Q53QV2)
inactive: idasanutlin 0.112 | alisertib 0.09 | [2] -0.352 | gefitinib -0.045 | [3] 0.169 | lapatinib -0.238

LAMC1 (UniProt P11047)
inactive: pictilisib 0.24

LIN52 (UniProt Q52LA3)
inactive: [3] 0
active: alisertib -0.924

LMLN isoform 3 (UniProt Q96KR4)
inactive: [2] -0.067 | lapatinib -0.002

LAPTM4B (UniProt Q86VI4)
inactive: filanesib 0.186 | alisertib -0.027 | [3] 0.007 | pictilisib 0.017

2 successive records from above, for reference:
LBH (UniProt Q53QV2)
inactive: idasanutlin 0.112 | alisertib 0.09 | [2] -0.352 | gefitinib -0.045 | [3] 0.169 | lapatinib -0.238

LAMC1 (UniProt P11047)
inactive: pictilisib 0.24

Additional entries follow.

LRRC41 (UniProt Q15345)
inactive: filanesib 0.003 | [2] -0.069 | lapatinib 0.055

LIG4 (UniProt P49917)
inactive: filanesib -0.093 | gefitinib 0.224 | pictilisib 0.032

LIMS1 isoform 5 (UniProt P48059)
inactive: zotarolimus -0.218

LAMA5 (UniProt O15230)
inactive: zotarolimus -0.136 | idasanutlin 0.047 | alisertib -0.03 | gefitinib 0.031 | [3] -0.067 | pictilisib -0.077

LOR (UniProt P23490)
inactive: alisertib 1.26 | [3] 0.015

LDHC (UniProt P07864)
inactive: filanesib 0.019 | gefitinib 0.062

LRRC42 (UniProt Q9Y546)
inactive: zotarolimus -0.072 | idasanutlin -0.064 | pictilisib 0.056

LRP1 (UniProt Q07954)
inactive: idasanutlin -0.173 | alisertib 0.287 | gefitinib 0.104 | [3] 0 | pictilisib 0.116

LIPT1 (UniProt Q9Y234)
inactive: idasanutlin -0.004 | alisertib -0.072 | [3] -0.312

LACRT (UniProt Q9GZZ8)
inactive: filanesib 0.535 | zotarolimus -0.156 | idasanutlin 0.152 | alisertib -0.041 | gefitinib 0.538 | [3] -0.128

LRP5 (UniProt O75197)
inactive: zotarolimus -0.224 | [2] -0.029 | gefitinib -0.021 | lapatinib 0.245 | pictilisib 0.023

LOX (UniProt P28300)
inactive: alisertib -0.111 | gefitinib -0.391 | [3] 0.146

LBHD1 (UniProt Q9BQE6)
inactive: zotarolimus 0

LGALS3BP (UniProt Q08380)
inactive: idasanutlin -0.063 | gefitinib -0.001

LAMA2 (UniProt P24043)
inactive: zotarolimus -0.331 | alisertib -0.028 | gefitinib -0.056 | [3] -0.001

LAPTM5 (UniProt Q13571)
inactive: zotarolimus -0.185 | idasanutlin 0.142 | pictilisib 0.129
